The text below walks through data of PMC5780493, “Epsin and Sla2 form assemblies through phospholipid interfaces” (Nature Communications, 2018).

The target of this assay is ENTH domain of epsin Ent1 from S. cerevisiae (S. cerevisiae) (UniProt Q12518). The assay is described as follows: crystal structure; ENTH1 11 mg/ml; 0.2 M CaCl2, 25% v/v MPD, 0.1 M Tris pH 8.5; no PIP2, an MPD molecule displaces the α0 helix; both purified.

Results are given in words; binding and its absence hold for the method and conditions named. Some binding calls cover weakened binding; strength is not graded here.

B1: ENTH domain of epsin Ent1 from S. cerevisiae (domain or fragment, UniProt Q12518 1-154)
chain: MSKQFVRSAKNLVKGYSSTQVLVRNATSNDNHQVSKDSLIELAEKSYDSADFFEIMDMLDKRLNDKGKYWRHIAKALTVIDYLIRFGSENCVLWCRENLYIIKTLKEFRHEDDEGIDQGQIVRVKAKELTALLSDDERLNEERNMNIKGRNRKG
Regarding B1, the binding result is on record as “binds”.
